{
  "source": "patent US9452992B2",
  "about": "(priority 2011, dated 2016)",
  "tested_on": "EboV",
  "parameters": "species or system Ebola virus",
  "note": "At least one compound was matched to its structure with a doubt left.",
  "data": [
    {"smiles": "CCOC(=O)C1=C(COCCN)NC(C)=C(C(=O)OC)C1c1ccccc1Cl", "note": "(stereo not shown) [amlodipine]", "values": [
      {"measurement": "anti-EboV activity", "result": "weak anti-EboV activity"}
    ]}
  ]
}
